# Assay results taken from patent US20230041211A1, “DECREASING TOXICITY OF TERPENES AND INCREASING THE PRODUCTION POTENTIAL IN MICRO-ORGANISMS” (BASF SE, priority 2019, published 2023).
# For at least one compound, name, drawing or mass did not settle the structure.
# Tested on: adapted E. coli strains (Isolate A to C, Mut T6 A)
# Assay type: cell-based, Escherichia coli
# Settings: tolerance of adapted strains or tested mutations, Table 3B; symbols not defined
# Procedure: To investigate the mode of action of the tolerance trait, chemicals with similar properties were tested.
# To assess the limitations of the tolerance mechanism, tolerance against three additional chemicals was tested.
# On the next day 25 mL of medium in 250 mL baffled flasks with Teflon® liner screw cabs were inoculated to an OD of 0.2 and incubated at 200 rpm. The terpenoid stress was added to the specified concentration. Before the cell-culture reached stationary phase, part of the culture was transferred to fresh medium in a fresh flask with the terpenoid. The mean culture growth rate was determined by comparing the initial OD and the culture OD before passaging.
# Growth rates were determined by transforming the OD-values of each experiment with the natural logarithm. In the linear regime of growth a line was fit to the data and the slope was determined, which is equal to the growth rate. Growth rates were determined for each flask individually and the growth rate of each condition is given as the mean and standard deviation of three biological replicates.
compound,measurement,value
CC(C)=CCO [Prenol],Tolerance,+
